Screen size: about 220,000 compounds; about 770 (0.35%) were called active. Inconclusive results, whose numbers are uncertain, are shown with a selection of clear calls. Rule as the data show it: active = binding response below about 49% or above about 150%; inconclusive = no clear call, values can overlap the other calls; inactive = in between.
These compounds were tested against Guanine nucleotide-binding protein G(o) subunit alpha (Homo sapiens) (UniProt P09471) (assay: RGS7-Galphao binding modulators, primary screen, biochemical, multiplexed bead flow cytometry (AID 1439;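 also: fluorescent Galphao held in activated GDP-AlF4 state binding bead-coupled RGS7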)). Details: at 10 µM, actives lie on both sides.

By UniProt entry, the sequences of proteins in these tests, tags left out.
UniProt P09471, whole entry, looked up: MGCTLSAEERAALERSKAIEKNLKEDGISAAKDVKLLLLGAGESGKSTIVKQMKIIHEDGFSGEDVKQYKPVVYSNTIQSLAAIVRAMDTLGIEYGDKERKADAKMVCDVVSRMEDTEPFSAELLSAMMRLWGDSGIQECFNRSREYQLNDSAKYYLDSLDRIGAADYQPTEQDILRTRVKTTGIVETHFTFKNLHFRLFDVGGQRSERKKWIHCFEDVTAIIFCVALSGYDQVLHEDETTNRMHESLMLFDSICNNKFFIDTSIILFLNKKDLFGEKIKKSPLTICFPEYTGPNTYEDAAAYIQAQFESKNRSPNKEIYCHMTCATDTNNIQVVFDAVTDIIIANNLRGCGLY

SMILES	binding response (% of control)
C=CCNC(=O)c1ccccc1NC(=O)C1COc2ccccc2O1 (stereo not drawn)	inactive: 100%
CCOC(=O)c1cc([N+](=O)[O-])sc1NC(=O)CC	inconclusive: 92.4%
CCN(CC)c1nc2c(c(=O)n(C)c(=O)n2C)n1CC(=O)c1ccccc1	inconclusive: 78.3%
C=C1CCN([C@@H](C)C(=O)NCc2ccc(Cl)cc2)S(=O)(=O)c2ccccc21	inconclusive: 108%
CCCCN(C(=O)c1ccc(Cl)c([N+](=O)[O-])c1)c1c(N)n(CCC)c(=O)[nH]c1=O	inactive: 106%
CCn1cc(C(=O)OCC(=O)NCc2ccccc2Cl)c(=O)c2ccc(C)nc21	inactive: 103%
Cc1nc2ccccn2c1C(=O)NNC(=S)Nc1ccccc1	inconclusive: 99.9%
O=C(CC(=O)N/N=C/c1ccc(O)cc1)N/N=C/c1ccc(O)cc1	inconclusive: 90.5%
Cn1cccc1/C=N/NC(=O)c1ccc[n+]([O-])c1	inconclusive: 108%
Cc1cc(NC(=O)CN2C(=O)NC(C)(c3ccc(OC(F)F)cc3)C2=O)no1 (stereo not drawn)	inactive: 110%
Cc1cc(C(=O)NNc2c(Cl)cccc2Cl)no1	inconclusive: 77.5%
COc1ccc(OC)c(Nc2ncnc3sc(-c4ccccc4)cc23)c1	inactive: 101%
CC(C)(C)OC(=O)CNC(=O)c1[nH]cnc1C(=O)N[C@@H](CCCCNC(=O)OC(C)(C)C)C(=O)OC(C)(C)C	inconclusive: 71.2%
CC(C)CCN(C(=O)CNC(=O)c1cccs1)C(C(=O)NC1CCCC1)c1ccncc1 (stereo not drawn)	inconclusive: 107%
CCOc1ccc(/C=C2\SC(=S)N(C(C(=O)O)c3ccccc3)C2=O)cc1OC (stereo not drawn)	inconclusive: 98.6%
Cc1noc(C)c1NC(=O)N1CCN(Cc2ccccc2)CC1	inconclusive: 110%
O=C(O)c1ccc(O)c(O)c1	inconclusive: 55.2%
CN(CC(=O)NCc1cccnc1)S(=O)(=O)c1ccccc1	inconclusive: 81.1%
O=C(O)CNC(=O)CC1S/C(=N/N=C2\CSC(=O)N2)NC1=O (stereo not drawn)	inactive: 97.6%
O=C(Nc1cccc([N+](=O)[O-])c1)c1ccccc1	inconclusive: 101%
O=C(NCCCn1ccnc1)/C(=C/c1cccnc1)NC(=O)c1ccco1	inconclusive: 98.8%
CCC(Oc1ccccc1)C(=O)O/N=C(\N)c1ccc(OC)c(OC)c1 (stereo not drawn)	inactive: 100%
O=[N+]([O-])c1cccc(P(=O)(O)c2cccc([N+](=O)[O-])c2)c1	inconclusive: 104%
O=C1CS/C(=N/N=C\c2ccn[nH]2)N1	inconclusive: 114%

Some of these compounds in order of length of the SMILES, largest number first:
SMILES	binding response (% of control)
Cc1cc(NC(=O)CN2C(=O)NC(C)(c3ccc(OC(F)F)cc3)C2=O)no1 (stereo not drawn)	inactive: 110%
CCn1cc(C(=O)OCC(=O)NCc2ccccc2Cl)c(=O)c2ccc(C)nc21	inactive: 103%
O=C(O)CNC(=O)CC1S/C(=N/N=C2\CSC(=O)N2)NC1=O (stereo not drawn)	inactive: 97.6%

(further entries)

SMILES	binding response (% of control)
Cc1nc(NS(=O)(=O)c2ccccc2)sc1NC(=O)Nc1ccc(Cl)cc1	inconclusive: 109%
COc1ccc(C(=O)Oc2ccc[nH]c2=O)cc1	inconclusive: 79.7%
Cc1ccc(-n2c(CC#N)n[nH]c2=S)c(C)c1	inconclusive: 72%
CS(=O)(=O)c1cnc(-c2ccccc2)nc1-c1ccccc1Cl	inactive: 100%
C[C@@H]1CC=C[C@H]2[C@H]1C(=O)N(Cc1ccccc1)[C@H]2c1ccc(-c2ccc(N(C)C)cc2)cc1F	inconclusive: 137%
COc1ccccc1N(/N=C1\Sc2ccccc2C1=O)C(C)=O	inconclusive: 101%
CC(=O)Nc1ccc(S(=O)(=O)N2c3ccccc3NC(=O)CC2C)c(Cl)c1 (stereo not drawn)	inconclusive: 86.1%
CCC1CCCCN1Cc1nc2ccccc2c(=O)n1CC(C)=O (stereo not drawn)	inconclusive: 321%
COc1ccc(-n2nc(C(C)=O)c(=O)[nH]c2=O)cc1	inactive: 100%
Cc1ccc(C(=O)c2ccc(C)cc2)cc1	inconclusive: 112%
COc1ccc(/C=N/NC(=O)C2C(C=C(Cl)Cl)C2(C)C)c(OC)c1 (stereo not drawn)	inactive: 96.2%
Brc1ccc(-c2nn[nH]n2)cc1	inconclusive: 105%
COc1ccccc1NC(=O)C(=O)N/N=C/c1cccs1	inactive: 98.7%
CCCC(c1nnnn1Cc1cccs1)N1CCN(C2CCCC2)CC1 (stereo not drawn)	inactive: 150%
O=C(NNC(=O)c1cnccc1C(F)(F)F)c1ccc(Cl)cc1	inconclusive: 133%
O=C(NC1CC1)C1CCN(C2CCN(C(=O)CC3=CCCCC3)CC2)CC1	inactive: 106%
COc1ccc(OCc2n(CC(=O)OC3CC(C)CCC3C(C)C)c3ccccc3[n+]2C)cc1 (stereo not drawn)	inconclusive: 80.2%
Cc1occc1-c1nnc(SCC(=O)NCc2cccs2)n1-c1ccc(F)cc1	inactive: 89.9%
COCCSc1ccccc1C(=O)Nc1ccccc1C#N	inconclusive: 99.7%
O=c1[nH]c(CSc2nc3ccccc3s2)nc2ccccc12	inconclusive: 124%
COc1ccc(N2CCN(C(CNC(=O)C(=O)NCc3cccnc3)c3ccco3)CC2)cc1 (stereo not drawn)	inconclusive: 74.4%
COc1ccc(NC(=O)C(CC(=O)O)C(C)c2ccccc2)cc1 (stereo not drawn)	inconclusive: 93.8%
Cc1ccc2c(c1)N(C(C)C(=O)NCc1ccccn1)C(=O)CO2 (stereo not drawn)	inconclusive: 70%
O=C(c1cccc(F)c1)N1CCCN(C(=O)c2cccc(F)c2)CC1	inactive: 98.1%

Structural class, the compounds so far containing a thiophene ring, fused or not (6)
SMILES	binding response (% of control)
CCOC(=O)c1cc([N+](=O)[O-])sc1NC(=O)CC	inconclusive: 92.4%
COc1ccc(OC)c(Nc2ncnc3sc(-c4ccccc4)cc23)c1	inactive: 101%
CC(C)CCN(C(=O)CNC(=O)c1cccs1)C(C(=O)NC1CCCC1)c1ccncc1 (stereo not drawn)	inconclusive: 107%
COc1ccccc1NC(=O)C(=O)N/N=C/c1cccs1	inactive: 98.7%
CCCC(c1nnnn1Cc1cccs1)N1CCN(C2CCCC2)CC1 (stereo not drawn)	inactive: 150%
Cc1occc1-c1nnc(SCC(=O)NCc2cccs2)n1-c1ccc(F)cc1	inactive: 89.9%

(list continues)

SMILES	binding response (% of control)
Oc1ccc2ccccc2c1C=Nc1ccccc1	inconclusive: 177%
COC(=O)/C=C1/S/C(=N/N=C/c2ccco2)NC1=O	inconclusive: 96.8%
COc1ccccc1N1CCN(C(=O)CCCCCn2c(=O)[nH]c3ccsc3c2=O)CC1	inactive: 105%
CCOc1ccc(OCC)c(NC(=O)C2CCN(c3ncccn3)CC2)c1	inactive: 101%
COc1ccc(CCN(C)c2ccc(S(=O)(=O)N3CCCC3)cn2)cc1OC	inconclusive: 104%
CCOC(=O)CN1NC2(CCCCCC2)NC1=S	inconclusive: 115%
COc1ccc(NC(=O)CCN2C(=O)c3ccncc3C2=O)cc1OC	inconclusive: 103%
Nc1nnc(-c2cccc(F)c2)s1	inconclusive: 101%
O=C(NNC1=Nc2ccccc2SC1)c1cccc([N+](=O)[O-])c1	inconclusive: -319%
Nn1c(SCc2cccc(Br)c2)nnc1-c1cccnc1	inconclusive: 88.4%
COc1cc(NC(=O)/C=C/c2ccccc2)c(C(=O)O)cc1OC	inconclusive: 110%
COc1cccc(/C=C2\SC(=S)N(N3C(=O)CCCC3=O)C2=O)c1	inconclusive: 116%
CCNc1nc(NCC)nc(OCCOC(=O)COc2ccc(Cl)cc2Cl)n1	inactive: 102%
Cc1cc(C)nc(N2CCCC(C(=O)NNC(=O)c3ccncc3)C2)n1 (stereo not drawn)	inconclusive: 150%
C1COCCNCCOCCOCCOCCN1	inactive: 102%
CCCCNS(=O)(=O)c1ccc2nc(-c3cccnc3)cc(C(=O)NCCCN(CC)CC)c2c1	inconclusive: 89.5%
O=C(N/N=C/C=C\c1ccco1)c1ccccn1	inconclusive: 101%
O=C(CSc1nc2c(cnn2-c2ccccc2)c(=O)[nH]1)N1CCCCC1	inconclusive: 434%
CCOC(=O)Cc1ccc(NC(=O)c2ccccc2Br)cc1	inconclusive: 106%
COc1ccc(F)c(CN2CCC(N3CCC(C(=O)N4CCOCC4)CC3)CC2)c1	inconclusive: 112%
CN1CCN(CC(=O)NC23CC4CC(CC(C4)C2)C3)CC1	inconclusive: 88.7%
COC(=O)c1ccccc1C(=O)c1ccc2c(c1)NC(=O)CO2	inconclusive: 87.3%
O=C1/C(=C/c2ccc([N+](=O)[O-])cc2)CCc2ccccc21	inconclusive: 94.5%
Cc1onc(-c2ccccc2)c1NC(=O)Nc1ccc(OC(F)F)cc1	inconclusive: -139%

SMILES	binding response (% of control)
COc1ccc(CCn2c(C3CCCCC3)nc3c(c(=O)c4ccccc4n3C)c2=O)cc1	inconclusive: 129%
CSc1nnc(CCCCCCCCc2nnc(SC)o2)o1	inconclusive: 131%
CSCc1cc(N(C)C)nc(SCc2ccc(Cl)c(Cl)c2)n1	inactive: 99%
FC(F)(F)c1cccc(NC(=S)N(CCCN2CCCC2)Cc2cccn2Cc2ccc(Cl)cc2)c1	inactive: 106%
CCN(CC)CC(=O)Nc1cc(N(C)C)nc2ccccc12	inconclusive: 113%
CC1CCCC(NC(=O)CCC(=O)c2ccc(F)cc2)C1C (stereo not drawn)	inconclusive: 130%
CC12CCC(C(=O)N(CC3CO3)C1=O)C2(C)C (stereo not drawn)	inactive: 108%
N#Cc1ccc(C(=O)Nc2cccc(NC(=O)c3ccco3)c2)c(F)c1	inactive: 94.4%
CN(C)S(=O)(=O)c1cccc(NC(=S)NCc2ccco2)c1	inconclusive: 91.3%
O=C(N/N=C/c1ccccc1C(=O)O)c1cccc(S(=O)(=O)Nc2cc(Cl)ccc2Cl)c1	inconclusive: 103%
Cc1cc(=O)[nH]c(N/N=C/c2ccc([N+](=O)[O-])cc2)n1	inconclusive: 100%
CCOc1ccc(C(=O)/C=C/c2ccc(OC)c(OC)c2)cc1	inconclusive: 98.2%
CN(C)Cc1cc(C(C)(C)C)cc(C(C)(C)C)c1O	inconclusive: 75.8%
CC(C)CNC(=O)c1cccc(NC(=O)CCc2ccccc2)c1	inactive: 99.8%
CCOC(=O)c1sc(Nc2nc(OC)cc(OC)n2)nc1C	inactive: 103%
Fc1ccc(NC(=S)NCc2cccnc2)cc1	inconclusive: 89.2%
CC(C)Oc1cccc(C(=O)NC(=S)Nc2ccccc2)c1	inactive: 104%
CN(C)C(CNC(=O)CCOc1ccccc1)c1ccco1 (stereo not drawn)	inconclusive: 69.8%
Cc1nc2ncnn2c(N2CCN(C(c3ccccc3)c3ccccc3)CC2)c1C	inactive: 99.6%
Cc1nc2sc(C(=O)Nc3ccccc3Cc3ccccc3)c(C)c2c(=O)[nH]1	inconclusive: 74.7%
CC1(OC(=O)CCc2ccccc2)C(=O)C=C2C=C(c3ccc(C#N)cc3)N(CC3CC3)C=C2C1=O (stereo not drawn)	inconclusive: 75.9%
